These are yes or no findings as the source states them, for the method shown. Some entries that bind do so weakly or less than the wild type.

Protein sequences, listed by entry. Tags and fused reporters are not part of them. Residues count along the entry.
UniProt Q8K2F0, residues 554-640: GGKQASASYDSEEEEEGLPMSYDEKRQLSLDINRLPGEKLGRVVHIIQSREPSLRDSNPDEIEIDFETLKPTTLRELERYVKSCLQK

In this assay the target is BRD3 ET domain (extraterminal domain of BRD3, residues 554 to 640) (murine (methods); human (abbreviations)) (UniProt Q8K2F0). Put plainly: NMR titration.

On to SRLTWRVQRSQNPLKIRLTREAP [23-residue C-terminal tail peptide (TP) of MLV integrase (IN)], for which the binding result was “binds”.

EFTGSPEIKLKITKTIQNGRELFESSLCGDLLNEVQASE [ET-binding polypeptide segment of NSD3 (Nuclear Receptor Binding SET Domain Protein 3)]: the binding result is recorded as “binds”.
